Data as given in the supplement of paper PMC11060735.
Where “and” joins values, the source holds several entries; their conditions need not be identical. Equal values may be shown once. Where a name gives a salt, the structure may show the parent alone. ± gives the standard deviation of the averaged measurements. Over roughly 1,800 compounds, “GFP- (p16Ink4a-) cell count relative to negative-control wells” has its median near 0.99; the lowest 2% begin near 0.5. Some of the results follow.

What follows are compounds tested on mouse p16Ink4a+/- lung fibroblasts (INKBRITE, bleomycin-injured) (assay: GFP- (p16Ink4a-) cell count relative to negative-control wells (fold of vehicle); higher = more p16Ink4a- cells surviving). Details: 1 µM; 3 days.

Q: For `COC(=O)Nc1nc2cc(C(=O)c3ccc(F)cc3)ccc2[nH]1` [Flubendazole], which GFP- is on record?
A: 0.933

Q: With `CN(C)CCC=C1c2ccccc2CCc2ccccc21` [Amitriptyline] as the compound, how does the GFP- read?
A: 0.751

Q: For `CN(C)C(=O)C(CCN1CCC(O)(c2ccc(Cl)cc2)CC1)(c1ccccc1)c1ccccc1` [Loperamide], which GFP- is on record?
A: 1.16

Q: For `Cc1cc(C)c(CNC(=O)c2cc(-c3ccc(CN4CCOCC4)cc3)cc3c2cnn3C2CCCC2)c(O)n1`, which GFP- is on record?
A: 0.893 ± 0.04

Q: How did the GFP- turn out when `CC1(C)S[C@@H]2[C@H](NC(=O)C(C(=O)O)c3ccccc3)C(=O)N2[C@H]1C(=O)O` (stereo partly drawn) [Carbenicillin] was run?
A: 1.19

Q: For `O=C(O)Cc1cccc(OCCCN(Cc2cccc(C(F)(F)F)c2Cl)CC(c2ccccc2)c2ccccc2)c1`, which GFP- is on record?
A: 0.916

Q: How did the GFP- turn out when `N=C(N)N` [Guanidine] was run?
A: 1.03

Q: Which GFP- does the source give for `COc1ccc([C@@H]2CC(=O)c3c(O)cc(O[C@@H]4O[C@H](CO[C@@H]5O[C@@H](C)[C@H](O)[C@@H](O)[C@H]5O)[C@@H](O)[C@H](O)[C@H]4O)cc3O2)cc1O` [Hesperidin] here?
A: 1.11 and 0.972

Q: `CCN1/C(=C/C(C)=O)Sc2ccc(OC)cc21` was tested. Which GFP- did it give?
A: 0.912

Q: Which GFP- does the source give for `COc1cc(OC)c2c(O)nc(-c3cc(C)c(OCCO)c(C)c3)nc2c1` here?
A: 0.938 ± 0.072

Q: For `Fc1ccc(C(c2ccc(F)cc2)N2CCN(C/C=C/c3ccccc3)CC2)cc1` [Flunarizine], which GFP- is on record?
A: 1.07

Q: How did the GFP- turn out when `CS(=O)(=O)c1ccc(C2=C(c3ccccc3)C(=O)OC2)cc1` [Rofecoxib] was run?
A: 1.16

Q: For `Cc1cc(-c2ncc(CC(=O)Nc3ccc(-c4cnccn4)cn3)cc2C)ccn1`, which GFP- is on record?
A: 1.18

Q: For `CC1(C)CC(=O)c2c(C(F)(F)F)nn(-c3ccc(C(N)=O)c(N[C@H]4CC[C@H](OC(=O)CN)CC4)c3)c2C1`, which GFP- is on record?
A: 0.658

Q: With `Cc1ccc(O)c([C@H](CCN(C(C)C)C(C)C)c2ccccc2)c1` [Tolterodine] as the compound, how does the GFP- read?
A: 1.03

Q: Which GFP- does the source give for `CC1(C)SC2C(NC(=O)[C@H](C(=O)O)c3ccsc3)C(=O)N2C1C(=O)O` (stereo partly drawn) [Ticarcillin sodium] here?
A: 1.22

Q: `C=CCc1ccc(O)c(-c2ccc(O)c(CC=C)c2)c1` [Honokiol] was tested. Which GFP- did it give?
A: 0.883

Q: `C[C@]1(c2nc3c(C(N)=O)cccc3[nH]2)CCCN1` [Veliparib] was tested. Which GFP- did it give?
A: 0.936 ± 0.085

Q: How did the GFP- turn out when `O=C(/C=C/C=C/c1ccc2c(c1)OCO2)N1CCCCC1` [Piperine] was run?
A: 1.04

Q: How did the GFP- turn out when `Cc1ccc(NC(=O)c2cccc(C(C)(C)C#N)c2)cc1Nc1ccc2ncn(C)c(=O)c2c1` was run?
A: 1.03

Q: How did the GFP- turn out when `CC(C)(C)c1ccc(C(=O)CCCN2CCC(OC(c3ccccc3)c3ccccc3)CC2)cc1` [Ebastine] was run?
A: 0.749

Q: Which GFP- does the source give for `COc1ccc(CCN(C)CCCC(C#N)(c2ccc(OC)c(OC)c2)C(C)C)cc1OC` (stereo not drawn) [Verapamil] here?
A: 0.931

Q: For `C=C1C(=O)[C@@]23C(CC[C@@H]1[C@H]2O)[C@@]12CO[C@]3(O)[C@@H](O)[C@@H]1C(C)(C)CC[C@@H]2O` (stereo partly drawn) [Oridonin], which GFP- is on record?
A: 0.884

Q: Which GFP- does the source give for `N[C@@H](Cc1cc(I)c(Oc2ccc(O)c(I)c2)c(I)c1)C(=O)O` [Liothyronine] here?
A: 0.935

Q: For `Cc1ccc(-n2sc(=O)n(Cc3ccc(F)cc3)c2=O)cc1`, which GFP- is on record?
A: 1.1

Q: How did the GFP- turn out when `O=c1cc(N2CCOCC2)oc2c1ccc1ccccc12` was run?
A: 1.03

Q: With `CCOc1ccccc1N=Nc1c(C)nn(-c2nc(-c3ccccc3)cs2)c1O` as the compound, how does the GFP- read?
A: 0.929

Q: `CC(=O)Oc1ccc(C(c2ccc(OC(C)=O)cc2)c2ccccn2)cc1` [Bisacodyl] was tested. Which GFP- did it give?
A: 1.13

Q: Which GFP- does the source give for `CN(C)CC/C=C1/c2ccccc2COc2ccc(CC(=O)O)cc21` [Olopatadine] here?
A: 1

Q: `CN(C)c1ccc(C(=O)NCCCCCCC(=O)NO)cc1` was tested. Which GFP- did it give?
A: 0.614 ± 0.1

Q: Which GFP- does the source give for `CO[C@H]1C[C@@H]2CC[C@@H](C)[C@@](O)(O2)C(=O)C(=O)N2CCCC[C@H]2C(=O)O[C@H]([C@H](C)C[C@@H]2CC[C@@H](OC(=O)C(C)(CO)CO)[C@H](OC)C2)CC(=O)[C@H](C)/C=C(\C)[C@@H](O)[C@@H](OC)C(=O)[C@H](C)C[C@H](C)/C=C/C=C/C=C/1C` [Temsirolimus] here?
A: 0.67

Q: With `COC(=O)N[C@@H](C)CNc1nccc(-c2cn(C(C)C)nc2-c2cc(Cl)cc(NS(C)(=O)=O)c2F)n1` as the compound, how does the GFP- read?
A: 1.03

Q: With `C[C@H](CCC(=O)O)[C@H]1CC[C@H]2[C@@H]3[C@@H](O)C[C@@H]4C[C@H](O)CC[C@]4(C)[C@H]3CC[C@]12C` [Ursodeoxycholic Acid] as the compound, how does the GFP- read?
A: 0.953

Q: How did the GFP- turn out when `O=C(O)c1ccc(N2C(=O)/C(=C/c3ccc(-c4ccc([N+](=O)[O-])cc4)o3)C=C2c2ccccc2)cc1` was run?
A: 0.896

Q: With `O=[N+]([O-])c1ccc2c(c1)S(=O)(=O)C=C2` [Stattic] as the compound, how does the GFP- read?
A: 0.935

Q: `N=C(N)/N=C(\N)NCCc1ccccc1` [Phenformin] was tested. Which GFP- did it give?
A: 1.14

Q: With `COC(=O)/C=C/C(=O)OC` [Dimethyl Fumarate] as the compound, how does the GFP- read?
A: 1

Q: Which GFP- does the source give for `CC#CCn1c(N2CCC[C@@H](N)C2)nc2c1c(=O)n(Cc1nc(C)c3ccccc3n1)c(=O)n2C` [Linagliptin] here?
A: 1.16
